Experimental data reported in patent US20240058464A1 (Fortis Therapeutics, Inc., priority 2021, published 2024).
At least one compound was matched to its structure with a doubt left.

Tested on: CD46 expression
Test: CD46 expression by RNA-sequencing in unpaired pre-treatment and post-treatment tumor biopsies
Type: in vivo, human
Conditions: breast cancer, FIG. 6

SMILES: O=P(O)(O)C(O)(Cn1ccnc1)P(=O)(O)O [zoledronic acid]
- CD46 expression after treatment vs pre-treatment: significantly higher
